Test [1] has as its target T1, full-length Xenopus CKIα fused to GST (Xenopus laevis) (UniProt P67963).
T1 sequence: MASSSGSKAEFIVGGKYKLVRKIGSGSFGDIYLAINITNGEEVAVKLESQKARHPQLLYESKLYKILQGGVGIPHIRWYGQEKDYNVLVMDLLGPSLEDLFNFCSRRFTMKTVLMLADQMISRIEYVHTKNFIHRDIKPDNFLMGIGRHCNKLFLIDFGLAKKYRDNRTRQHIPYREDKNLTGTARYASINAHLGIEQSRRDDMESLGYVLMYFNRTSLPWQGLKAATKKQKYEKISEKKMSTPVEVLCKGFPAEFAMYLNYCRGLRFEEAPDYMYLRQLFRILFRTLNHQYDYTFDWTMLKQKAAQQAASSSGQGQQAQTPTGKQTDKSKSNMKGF
The test is described as follows: pull-down; GST fusion kinase bound to glutathione sepharose, incubated with 35S-labeled substrate; 4°C, 40 minutes, 20 mM Tris pH 7.5, 150 mM NaCl, 0.5% Nonidet P-40, 1 mM DTT; full-length CKIε and CKIα→ε constructs dephosphorylated with SAP, or CKIε autophosphorylated with ATP, on the resin; only the target purified.

The chains behind the UniProt entries cited, without tags or fusion partners.
UniProt O35625: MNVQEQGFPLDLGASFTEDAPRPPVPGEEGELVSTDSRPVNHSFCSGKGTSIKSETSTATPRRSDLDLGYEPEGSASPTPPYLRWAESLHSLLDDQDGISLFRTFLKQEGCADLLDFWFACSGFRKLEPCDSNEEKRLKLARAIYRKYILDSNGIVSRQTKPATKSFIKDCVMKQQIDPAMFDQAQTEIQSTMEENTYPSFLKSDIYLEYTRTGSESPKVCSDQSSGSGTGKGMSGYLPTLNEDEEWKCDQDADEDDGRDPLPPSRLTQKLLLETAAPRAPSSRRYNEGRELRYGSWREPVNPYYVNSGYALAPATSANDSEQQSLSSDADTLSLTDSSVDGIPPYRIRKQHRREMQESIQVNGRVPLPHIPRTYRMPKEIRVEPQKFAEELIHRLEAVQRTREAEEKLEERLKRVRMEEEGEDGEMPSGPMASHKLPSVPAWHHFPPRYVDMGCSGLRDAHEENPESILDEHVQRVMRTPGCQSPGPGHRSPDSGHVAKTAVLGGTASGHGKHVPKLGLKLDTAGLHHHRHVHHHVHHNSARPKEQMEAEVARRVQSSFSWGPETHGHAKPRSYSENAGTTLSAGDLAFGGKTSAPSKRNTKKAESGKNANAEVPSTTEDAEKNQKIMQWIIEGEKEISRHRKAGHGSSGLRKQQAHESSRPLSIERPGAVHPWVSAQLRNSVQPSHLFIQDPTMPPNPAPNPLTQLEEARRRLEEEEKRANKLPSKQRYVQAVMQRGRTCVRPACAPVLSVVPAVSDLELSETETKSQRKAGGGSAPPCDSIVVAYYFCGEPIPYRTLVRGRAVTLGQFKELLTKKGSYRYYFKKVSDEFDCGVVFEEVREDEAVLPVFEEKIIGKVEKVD
UniProt O35973: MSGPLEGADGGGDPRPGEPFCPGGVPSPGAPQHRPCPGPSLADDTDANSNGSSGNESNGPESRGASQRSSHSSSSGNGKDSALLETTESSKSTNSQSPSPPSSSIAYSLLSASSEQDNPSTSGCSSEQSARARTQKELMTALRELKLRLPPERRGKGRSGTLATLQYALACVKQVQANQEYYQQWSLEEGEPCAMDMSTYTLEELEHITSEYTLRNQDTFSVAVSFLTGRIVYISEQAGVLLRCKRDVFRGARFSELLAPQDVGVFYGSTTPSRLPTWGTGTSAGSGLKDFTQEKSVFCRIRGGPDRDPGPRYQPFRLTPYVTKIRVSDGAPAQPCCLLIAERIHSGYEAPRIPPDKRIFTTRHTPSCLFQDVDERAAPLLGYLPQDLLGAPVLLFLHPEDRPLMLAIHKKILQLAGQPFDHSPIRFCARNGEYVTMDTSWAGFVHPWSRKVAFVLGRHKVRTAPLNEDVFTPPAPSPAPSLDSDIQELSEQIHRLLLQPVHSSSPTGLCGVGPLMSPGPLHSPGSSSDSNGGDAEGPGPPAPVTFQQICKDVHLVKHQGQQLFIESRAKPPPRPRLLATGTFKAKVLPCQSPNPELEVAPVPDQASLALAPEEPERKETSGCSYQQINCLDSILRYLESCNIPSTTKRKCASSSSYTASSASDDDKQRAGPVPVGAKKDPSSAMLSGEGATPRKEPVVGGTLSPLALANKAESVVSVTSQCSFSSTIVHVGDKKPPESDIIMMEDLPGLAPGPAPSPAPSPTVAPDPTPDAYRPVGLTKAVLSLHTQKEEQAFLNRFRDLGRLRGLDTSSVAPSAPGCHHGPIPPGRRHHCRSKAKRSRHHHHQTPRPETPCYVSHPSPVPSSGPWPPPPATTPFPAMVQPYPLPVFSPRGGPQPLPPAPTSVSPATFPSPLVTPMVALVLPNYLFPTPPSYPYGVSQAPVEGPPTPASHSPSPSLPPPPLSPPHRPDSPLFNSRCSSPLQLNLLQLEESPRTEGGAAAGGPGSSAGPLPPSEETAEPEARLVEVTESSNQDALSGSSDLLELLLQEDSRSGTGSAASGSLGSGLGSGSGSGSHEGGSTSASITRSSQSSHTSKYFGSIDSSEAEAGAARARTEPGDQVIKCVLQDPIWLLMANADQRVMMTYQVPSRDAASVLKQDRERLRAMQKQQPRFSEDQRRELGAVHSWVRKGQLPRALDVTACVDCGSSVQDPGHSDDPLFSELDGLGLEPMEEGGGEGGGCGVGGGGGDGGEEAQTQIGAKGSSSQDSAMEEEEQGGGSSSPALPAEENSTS

Test [2] has as its target T1, full-length Xenopus CKIα fused to GST (Xenopus laevis). The description is as above. This is another data set of the same source.

Like-named read-outs stand apart in the source and are kept apart here. No constants are given. Whether binding was seen depends on the method and setting. Binding seen in cells or lysates may run through a third protein. Some results given as binding are weak or reduced against the parent protein; the word gives no strength. Tags and fused reporters may be left off the sequences shown.

Consider “mouse Axin, 35S-labelled (from UniProt O35625 1-863)”, for which the binding result in test [1] is “binds”.
As to “mouse Per1, 35S-labelled (from UniProt O35973 1-1291)”, the binding result in test [1] is listed as “no binding”.

B1: Xenopus Dishevelled, 35S-labelled (protein, UniProt P51142 1-736)
chain: MAETKVIYHLDEEETPYLVKVPVPATDIRLRDFKAALGRGHAKYFFKAMDQDFGVVKEEISDDNAKLPCFNDRVVSWLASSEGSQPDSAPPAPATEVRPEPPPPVPPPIPPPPAERTSGIGDSRPPSFHPNVSGSTEQLDQDNESVISMRRDRVRRRESSEQAGVGRGVNGRTERHLSGYESSSTLLTSEIETSICDSEEDDTMSRFSSSTEQSSASRLLKRHRRRRKQRPPRLERTSSFSSVTDSTMSLNIITVTLNMEKYNFLGISIVGQSNERGDGGIYIGSIMKGGAVAADGRIEPGDMLLQVNDINFENMSNDDAVRVLRDIVHKPGPIVLTVAKCWDPSPQGYFTLPRNEPIHPIDPAAWVSHSAALSGSFPVYPGSASMSSMTSSTSVTETELSHALPPVSLFSLSVHTDLASVVKVMASPESGLEVRDRMWLKITIPNAFLGSDVVDWLYHHVEGFQDRREARKFASNLLKAGFIRHTVNKITFSEQCYYIFGDLTGCENYMTNLSLNDNDGSSGASDQDTLAPLPLPGASPWPLLPTFSYQYQAPHPYSTQPPAYHELSSYSYGMGSAGSQHSEGSRSSGSNRSDGGRGMQKDDRSGVAGVGGGDSKSGSGSESEYSTRSSIRRVGGGEAGPPSERSTSSRLPPHHPPSVHSYAAPGVPLSYNPMMLMMMPPPPLPPPGVCPPNSSVPPGAPPLVRDLASVPPELTATRQSFHMAMGNPSEFFVDVM
modifications: 35S-methionine label
Turning to B1, the binding result in test [2] is listed as “no binding”.

For the origin of these results see article PMC2651596.
